Among the data in publication PMC8413462 are binding values, retold here.

This assay deals with T1, Nop5_(2)–Fib2 complex from Pyrococcus furiosus (P. furiosus) (UniProt Q8U4M1+Q8U4M2).
T1 sequence 1: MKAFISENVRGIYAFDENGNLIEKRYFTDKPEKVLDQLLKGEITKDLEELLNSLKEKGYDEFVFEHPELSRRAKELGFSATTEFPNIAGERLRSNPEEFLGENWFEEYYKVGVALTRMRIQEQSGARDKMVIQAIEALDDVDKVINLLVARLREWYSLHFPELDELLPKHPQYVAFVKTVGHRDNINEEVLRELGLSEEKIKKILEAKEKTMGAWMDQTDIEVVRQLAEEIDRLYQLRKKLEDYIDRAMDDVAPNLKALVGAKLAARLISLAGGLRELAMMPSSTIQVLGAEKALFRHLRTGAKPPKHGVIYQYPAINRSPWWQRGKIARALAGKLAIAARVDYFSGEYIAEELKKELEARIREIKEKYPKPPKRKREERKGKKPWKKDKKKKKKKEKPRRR
T1 sequence 2: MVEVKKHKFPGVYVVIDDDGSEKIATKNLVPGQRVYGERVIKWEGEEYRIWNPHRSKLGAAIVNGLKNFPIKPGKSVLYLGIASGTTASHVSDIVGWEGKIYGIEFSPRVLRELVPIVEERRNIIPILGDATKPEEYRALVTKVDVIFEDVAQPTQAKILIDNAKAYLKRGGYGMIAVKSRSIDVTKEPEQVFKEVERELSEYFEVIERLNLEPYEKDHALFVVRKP
The assay is described as follows: SEC; chimeric RNP: Nop5_(2)–Fib2, Snu13 and yeast guide RNA snR51 mixed 1:2:1, incubated 15 min; Superdex S200 Increase 10/300 GL; 20 mM sodium phosphate, 500 mM NaCl, pH 6.6; the guide RNA is part of the particle; both purified. (In general: SEC sorts molecules by how far they enter the pores of the column.)

Results are given in words; binding and its absence hold for the method and conditions named. Some entries that bind do so weakly or less than the wild type. Where a sequence is shown, tags or fusion partners need not be part of it.

B1: Snu13 from Saccharomyces cerevisiae (protein, UniProt P39990 1-126)
chain: MSAPNPKAFPLADAALTQQILDVVQQAANLRQLKKGANEATKTLNRGISEFIIMAADCEPIEILLHLPLLCEDKNVPYVFVPSRVALGRACGVSRPVIAASITTNDASAIKTQIYAVKDKIETLLI
Consider B1, for which the binding entry is given as “binds”.
